Data on one sequence can be found in paper PMC3759440.

Sequences of proteins named here, by UniProt entry; tags and fusion partners are left off. A change or cut given only in a name is not applied to a line headed by its entry.
UniProt Q92754: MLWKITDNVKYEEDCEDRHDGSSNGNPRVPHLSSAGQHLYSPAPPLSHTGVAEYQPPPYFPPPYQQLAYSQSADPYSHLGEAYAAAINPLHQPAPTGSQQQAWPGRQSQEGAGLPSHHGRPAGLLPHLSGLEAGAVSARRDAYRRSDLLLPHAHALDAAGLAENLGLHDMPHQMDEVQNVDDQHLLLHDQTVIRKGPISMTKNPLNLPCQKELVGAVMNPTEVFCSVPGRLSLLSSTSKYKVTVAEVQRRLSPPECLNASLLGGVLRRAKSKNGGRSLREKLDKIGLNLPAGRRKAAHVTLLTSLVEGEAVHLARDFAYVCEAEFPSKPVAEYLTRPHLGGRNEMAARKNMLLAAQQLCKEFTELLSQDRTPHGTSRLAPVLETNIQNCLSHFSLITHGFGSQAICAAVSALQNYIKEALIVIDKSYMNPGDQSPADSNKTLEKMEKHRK

The exact form of at least one protein or probe is not confirmed.

In this data set the target is TFAP2C (AP-2C, AP-2gamma) (UniProt Q92754). The data set is described as follows: competition with a labelled probe. Particulars: cold competitor vs 140 bp probe, competes more effectively than single-site fragments; protein translated in vitro.

With “GGAGGCTTCAGGGTGACTTTGGGAGGAGTGGCTTCCAGAGGAGGAGCAGCTGGGAC (double strand) [ECM1_F2]”, the binding result is “binds”.
